{"source": "PubChem BioAssay AID540256", "about": "(National Center for Advancing Translational Sciences (NCATS), 2011)", "note": "Hit rate of the full screen: of about 300,000 compounds, about 3,700 (1.2%) were called active. The shares of active, inactive and inconclusive entries below differ from those in the screen. Calls come from the whole dose curve; tested in HEK293 cells. Potencies beside an inconclusive call are fits to weak or partial responses and may not hold up. Potency is the fitted concentration of half-maximal effect."}
{"experiment": "qHTS for Inhibitors of binding or entry into cells for Lassa Virus; note: nearly all actives have a fitted effect of over 50% in size", "details": "Lassa virus pseudotype entry inhibition, cell reporter; series mostly up to 37.9 µM"}
{"smiles": "CCCSc1ccc2nc(NC(=O)OC)[nH]c2c1", "Potency": "active: 2.06 µM"}
{"smiles": "Cc1cc2c(cc1C)NC(CC(=O)Nc1ccccc1)C(=O)N2", "note": "(stereo unspecified)", "Potency": "inconclusive: 20 µM [inhibitor, partial curve, poor fit]"}
{"smiles": "COC(=O)c1scc(C)c1NC(=O)/C=C/C(=O)O", "Potency": "inactive"}
{"smiles": "Cc1ccc(OCC(=O)c2cc(C)n(-c3ccccc3)c2C)c([N+](=O)[O-])n1", "Potency": "inconclusive: 35.5 µM [inhibitor, single point]"}
{"smiles": "CCC(c1nnnn1C1CCCCC1)N(Cc1ccco1)Cc1cc2ccc(OC)cc2[nH]c1=O", "note": "(stereo unspecified)", "Potency": "inconclusive: 35.5 µM [inhibitor, single point]"}
{"smiles": "Cc1ccc(O)c(NC(=O)c2ccc(Br)c(S(=O)(=O)N3CCCCC3)c2)c1", "Potency": "inconclusive: 15.8 µM [inhibitor, single point]"}
{"smiles": "Cc1cc(Nc2ccc(C(C)C)cc2)n2ncnc2n1", "Potency": "inactive"}
{"smiles": "NC(=O)c1nsc(C(=O)N(Cc2cccnc2)C(C(=O)NCc2ccc(F)cc2)c2ccc(F)cc2)c1N", "note": "(stereo unspecified)", "Potency": "inconclusive: 35.5 µM [inhibitor, single point]"}
{"smiles": "O=C(O)C1CC=CCC1C(=O)NNS(=O)(=O)c1ccccc1", "note": "(stereo unspecified)", "Potency": "inconclusive: 0.355 µM [activator, full curve, poor fit]"}
{"smiles": "COc1ccc(CCNC(=O)c2cccc(NS(=O)(=O)c3ccccc3F)c2)cc1OC", "Potency": "inactive"}
{"smiles": "CCOC(=O)C1CCN(CCCSc2ccc(C)cc2)CC1", "Potency": "inactive"}
{"smiles": "CN(CC(=O)Nc1ccc(N2CCOCC2)cc1)C(=O)CSc1ccc(Br)cc1", "Potency": "inactive"}
{"smiles": "O=C(Nc1ccc(OCC(F)(F)C(F)F)cc1)c1ccncc1", "Potency": "inconclusive: 8.91 µM [inhibitor, partial curve, poor fit]"}
{"smiles": "O=c1cc(N2CCCCC2)c(-c2ccccc2)nn1Cc1cccc(Cl)c1", "Potency": "inactive"}
{"smiles": "O=C(O)c1ccc2cccnc2n1", "Potency": "inactive"}
{"smiles": "COc1ccc(N2CCN(C(CNC(=O)c3cccc(Cl)c3)c3cccnc3)CC2)cc1", "note": "(stereo unspecified)", "Potency": "inactive"}
{"smiles": "CCC(=O)N1c2ccccc2CC1C(=O)NCCN1CCN(c2cccc(C(F)(F)F)c2)CC1", "note": "(stereo unspecified)", "Potency": "inactive"}
{"smiles": "CCCCn1c(=O)n(CC(=O)Nc2ccc(OC)c(Cl)c2)c(=O)c2c1nc(CO)n2CCC", "Potency": "inconclusive: 28.2 µM [inhibitor, single point]"}
{"smiles": "COCCCN1CN(Cc2ccco2)CNC1=S", "Potency": "inconclusive: 6.31 µM [activator, single point]"}
{"smiles": "CCn1c(C)c(C)c2cc(C(=O)NCCCN3CCCCC3)ccc21", "Potency": "inconclusive: 17.8 µM [inhibitor, single point]"}
{"smiles": "O=C(c1ccc(O)cc1)c1ccc(O)cc1O", "Potency": "inconclusive: 3.55 µM [inhibitor, partial curve, poor fit]"}
